# Results reported in PubChem BioAssay AID488966 (Southern Research Specialized Biocontainment Screening …, 2010).
# “And” between values parts separate entries of the source, which are not always exact repeats. Equal values may be shown once. Hit rate of the full screen: of about 340,000 compounds, about 55 (0.02%) were called active. The shares of active, inactive and inconclusive entries below differ from those in the screen.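 How the source made its calls: active means phage lysis inhibition, versus mean bacterial control, above a set limit; inconclusive means no clear call, values can overlap the other calls; inactive means the rest.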
# Assay: protection from phage-mediated lysis, alamar blue read-out – E. coli UTI89, K1F phage, bacterial capsule biogenesis inhibitors (AID 488966);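 further: capsule biogenesis inhibitors block K1F phage lysis so surviving cells raise fluorescence; higher fluorescence means more inhibition of phage lysis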
# Conditions: 2 h; inhibition: at 100 µM, active compounds read high unless noted; series mostly up to 300 µM
row,Compound,inhibition
1,CC(=O)Nc1ccc(/C(C)=N/Nc2nc(Nc3cccc4ccccc34)nc(N3CCOCC3)n2)cc1,inconclusive: 16.4%
2,CC1CCN(CC(O)COc2cccc(F)c2)CC1 (configuration not stated),inconclusive: 17.9%
3,CCC(=O)Nc1ccc2c(c1)nc(CN1CCN(C(C)=O)CC1)n2C,inconclusive: 19.9%
4,CC(=O)N(CCC(c1ccco1)C(C)C)Cc1ccc(OC(C)C)cc1 (configuration not stated),inconclusive: 16.8%
5,COc1ccc(NS(=O)(=O)c2cccc(C(=O)NCCCN3CCOCC3)c2)cc1,"inactive: 1% [at 50 µM, active compounds read high]"
6,COc1cccc(CN2CCNC(=O)C2CC(=O)N(C)Cc2cnccn2)c1OC (configuration not stated),inconclusive: 21.6%
7,Cc1ccc(C)c(OCCCCCn2ccnc2)c1,inconclusive: 16.1%
8,COC(=O)c1sccc1NC(=O)Nc1cccc(Cl)c1Cl,inactive: 0.2%
9,COC(=O)/C=C/C(=O)Nc1ccc(O)c(Cl)c1,inactive: -2.78%
10,CN(C(=O)CSc1nc2sc3c(c2c(=O)n1C)CCC3)C1CCS(=O)(=O)C1 (configuration not stated),"inconclusive: 21.6% [at 50 µM, active compounds read high]"
11,COc1ccc(NC(=O)CN(c2cc(C)cc(C)c2)S(=O)(=O)c2c(C)n[nH]c2C)cc1,inconclusive: 21.4%
12,Cc1cc(OCC(=O)NC(Cc2ccc(Cl)cc2)C(=O)O)c2c(C)c(C)c(=O)oc2c1 (configuration not stated),inconclusive: 16.3%
13,COc1ccccc1NC(=O)CN1C(=O)C(C)Oc2ccccc21 (configuration not stated),inactive: -1.62%
14,CSc1nsc(NC(=O)CCNC(=O)c2ccc([N+](=O)[O-])cc2)n1,inconclusive: 20.9%
15,COCCn1nnnc1C(c1cc2ccc(OC)cc2[nH]c1=O)N1CCc2ccccc2C1 (configuration not stated),inconclusive: 16.9%
16,Cc1ccc(C(=O)Nc2nc(=O)n(C(=O)CC(C)C)s2)cc1,inconclusive: 10.2%
17,CCCOc1ccc(C2c3c(oc4ccccc4c3=O)C(=O)N2CCCN2CCOCC2)cc1 (configuration not stated),inactive: 3.1%
18,NC(N)=N/N=C/c1ccc(OCc2ccc(Cl)cc2)cc1,inactive: -12.3%
19,COc1ccc(-c2nc(NCCCN(C)C)c3ccccc3n2)cc1,inactive: 5.55%
20,O=C(COC(=O)Cc1cn2ccsc2n1)NC12CC3CC(CC(C3)C1)C2,inconclusive: 18.1%
21,C/C(=N\NC(=O)C(O)c1ccccc1)c1ccc(Cl)cc1 (configuration not stated),inactive: 0%
22,COc1ccc(OC)c(NC(=S)NCCSc2ccc(C)cc2)c1,inconclusive: 18.3%

row,Compound,inhibition
1,CC(CN(C)C)CN1c2ccccc2Sc2ccccc21 (configuration not stated),inconclusive: 17.3%
2,Cc1onc(-c2c(F)cccc2Cl)c1C(=O)NC(=S)NC1CCSC1=O (configuration not stated),inconclusive: 20.6%
3,CC(C)(C)NC(=O)c1ccnc(C(C)(C)C)c1,inconclusive: 15.2%
4,CCOC(=O)c1c(/N=C/N(C)C)sc2c1CCC2,inconclusive: 17.4%
5,Cc1c(C(=O)NC(=S)Nc2ccc(N3CCOCC3)cc2)cccc1[N+](=O)[O-],inconclusive: 17.7%
6,O=C(COc1ccc(Cl)cc1)N1CCCCCCC1,inconclusive: 16.1%
7,Cc1ccc(S(=O)(=O)c2c(C)cc(C)nc2Oc2cccc(C)c2C)cc1,inactive: 1.5%
8,CC(C)Nc1nc(SCC(=O)Nc2ccccc2)nc(N2CCOCC2)n1,"inactive: -0.955% [at 50 µM, active compounds read high]"
9,COc1ccccc1NC(=S)Nc1ccccn1,inconclusive: 15.6%
10,Cc1ccc(S(=O)(=O)N2CC=C(C(=O)NCc3ccccc3)CC2)cc1,inconclusive: 19.6%
11,O=C1c2ccccc2C(=O)N1CC1=NCCc2ccccc21,inconclusive: 15.5%
12,COc1ccc(OC)c(C2C3CN(C(C)C)CC=C3C(C#N)=C(N)C2(C#N)C#N)c1 (configuration not stated),inconclusive: 16.1%
13,CCCNC(=O)C(=O)Nc1ccc2c(c1)N(S(=O)(=O)c1cccs1)CCC2,"inactive: 1.18% [at 50 µM, active compounds read high]"
14,O=C(Nc1ccc(F)cc1)c1ccc2ncsc2c1,inactive: 0.29%
15,Cc1ccccc1NC(=O)CCN1CCN(C)CC1,inactive: -0.19%
16,Nc1nc(SCc2ccccc2)[nH]c(=O)c1-c1ccccc1,inconclusive: 15.7%
17,CCC(C)C1C(C#N)=C(N)Oc2n[nH]c(-c3ccccc3)c21 (configuration not stated),inconclusive: 16.2%
18,Cc1ccc(N2C(=O)c3ccccc3C2Nc2ccc(S(=O)(=O)N3CCCCC3)cc2)nc1 (configuration not stated),inconclusive: 18.2%
19,C=CCN1C(=O)CN=C1Nc1cc(C)cc(C)c1,inactive: -1.02%
20,CN(C(=O)Cn1c(=O)oc2cc(S(=O)(=O)N3CCCC3)ccc21)C1CCCCC1,inactive: 0.1%
21,Cc1ccc(CN2C(=O)c3ccccc3NC23CCN(Cc2ccccc2)CC3)cc1,inconclusive: 16%
22,Cc1cc(N2CCCN(C)CC2)nc2cc(Cl)ccc12,inconclusive: 17.5%

row,Compound,inhibition
1,Cc1ccc(S(=O)(=O)N2CC(=O)Nc3ccccc32)cc1,inconclusive: 16.2%
2,CC(C)=CCc1ccc(O)c(=O)cc1C(C)C,inconclusive: 79.8%
3,CC(C)OCCCNC(=O)c1cc(-c2cccs2)nc2ccccc12,inactive: 0.22%
4,COc1ccc(NC(=O)CN2C(=O)/C(=C3\SC(=S)N(CCC(=O)O)C3=O)c3ccccc32)cc1,"inactive: 1.3% [at 50 µM, active compounds read high]"
5,O=Nc1ccc(NOC(=O)c2ccccc2)cc1,"inactive: 0.94% [at 50 µM, active compounds read high]"
6,CCc1ccc(NC(=O)C(=O)N/N=C(\C)CC(=O)NCc2ccc(Cl)cc2)cc1,inconclusive: 18.9%
7,Cc1ccc(C(=O)N2CCN(S(C)(=O)=O)C2)cc1,inactive: 3.27%
8,Cc1ccn2cc(-c3cccc(S(=O)(=O)N4CCCCC4)c3)nc2c1,inactive: -0.04%
9,CCN(CC)c1ccc(C(=C2C=CC(=[N+](CC)CC)C=C2)c2ccc(S(=O)(=O)O)cc2S(=O)(=O)[O-])cc1,"inactive: -0.79% [at 50 µM, active compounds read high]"
10,COc1cc(NC(=O)c2ccccc2)ccc1NC(=O)Cc1ccccc1,inconclusive: 18.8%
11,CCCn1c(/C=N/Nc2nc3ccccc3[nH]2)nc2ccccc21,inconclusive: 17.8%
12,CCN(CC)Cc1cc(Nc2ccnc3cc(Cl)ccc23)ccc1O,inconclusive: 93.7% and inconclusive: 99.2%
13,Cc1ccc(CNc2nc(C)nc3sc4c(c23)CCC4)cc1,inconclusive: 16.4%
14,O=C1N/C(=N/Nc2ccccc2)S/C1=C\c1ccccc1,inconclusive: 117%
15,COc1cccc(C(=O)N2CCN(C3CCC(c4ccccc4)CC3)CC2)c1 (configuration not stated),inconclusive: 15.1%
16,O=C(NCc1cc([N+](=O)[O-])ccc1O)c1cccnc1Sc1ccc(Cl)cc1,inactive: 7.97%
17,COc1ccc2[nH]c3c(c2c1)CCN1C(=O)N([C@@H](C)C(=O)NCc2ccc(F)cc2)C(=O)[C@]31C,inactive: 1.55%
18,COc1ccccc1-c1ccc(NC2CCCCC2)nn1,inconclusive: 16.8%
19,O=C(NCc1ccc(F)cc1)C1C2C=CC3(CN(Cc4cccnc4)C(=O)C13)O2 (configuration not stated),inconclusive: 17.6%
20,O=c1nc(-c2ccccc2)c2ccccc2[nH]1,inconclusive: 18.4%
21,COCCn1cnnc1SCC(=O)c1ccc(S(=O)(=O)N2CCCC2)cc1,inconclusive: 17.9%
22,N/C(=N\OC(=O)c1ccccc1)C(C(=O)NOC(=O)c1ccccc1)C1CCCCC1 (configuration not stated),inconclusive: 16.9%

# Part of the list above, as tab-separated lines.
row	Compound	inhibition
9	COC(=O)/C=C/C(=O)Nc1ccc(O)c(Cl)c1	inactive: -2.78%
10	CN(C(=O)CSc1nc2sc3c(c2c(=O)n1C)CCC3)C1CCS(=O)(=O)C1 (configuration not stated)	inconclusive: 21.6% [at 50 µM, active compounds read high]
11	COc1ccc(NC(=O)CN(c2cc(C)cc(C)c2)S(=O)(=O)c2c(C)n[nH]c2C)cc1	inconclusive: 21.4%
12	Cc1cc(OCC(=O)NC(Cc2ccc(Cl)cc2)C(=O)O)c2c(C)c(C)c(=O)oc2c1 (configuration not stated)	inconclusive: 16.3%
13	COc1ccccc1NC(=O)CN1C(=O)C(C)Oc2ccccc21 (configuration not stated)	inactive: -1.62%

# (further entries)

row,Compound,inhibition
1,CCCCS(=O)CC(COC)OC(=O)c1ccccc1 (configuration not stated),inactive: 0.21%
2,Clc1ccc(Cn2ncc3c(NCc4ccccc4)ncnc32)cc1,inconclusive: 19.6%
3,O=C(C1=C(O)/C(=C/c2ccc(O)cc2)CCC1)C(F)(F)F,inconclusive: 15.5%
4,O=C(CCc1ccccc1)NNC(=O)c1ccccc1Br,inconclusive: 15.2%
5,COc1cc(/C=N/O)ccc1OCc1ccccc1Cl,inactive: 2.6%
6,O=C(C[C@@H]1C/C=C\CCC(=O)OC[C@H](Cc2ccccc2)NC1=O)N[C@@H](CO)Cc1ccccc1,inconclusive: 19.8%
7,O=C(Nc1ccc(F)cc1F)c1cccnc1,inconclusive: 15.7%
8,O=C(CCCc1nc2ccccc2s1)Nc1ccc(N2CCOCC2)cc1,inactive: 0.19%
9,Cc1cccc(NC(=O)Nc2ccncc2)c1,inactive: 3.48%
10,O=C(COC(=O)C12CC3CC(CC(Cl)(C3)C1)C2)N1CCCCC1,inconclusive: 18.7%
11,Cc1nn2c(NCCCN(C)C)c3c(nc2c1-c1ccccc1)CCC3,inconclusive: 18%
12,Cc1c(CCOC(=O)c2ccc(Cl)cc2Cl)sc[n+]1CC(=O)c1ccccc1,inconclusive: 21.6%
13,COc1ccccc1Oc1cc(C#N)c(C#N)cc1-n1nnc2ccccc21,inconclusive: 17.5%
14,O=C(O)c1cc(-c2ccccc2)nn1CC1CC(c2cccnc2)=NO1 (configuration not stated),inactive: 1.3%
15,CCOC(=O)C(=O)Nc1nnc(COc2ccccc2)s1,inconclusive: 16%
16,CC(=NNC(=S)N1CC2CCC(CC2)C1)c1cccc(C)n1,inconclusive: 19.7%
17,Cc1ccc(C(c2nnnn2CS(=O)(=O)c2ccc(C)cc2)N2CCC(C(N)=O)CC2)cc1 (configuration not stated),inconclusive: 16%
18,Cc1ccccc1C(=O)N=c1ccn(-c2nc3ccccc3nc2NS(=O)(=O)c2ccccc2)cc1,inactive: 0.1%
19,O=c1[nH]cnc2c1oc1ccccc12,inconclusive: 15.4%
20,O=C(C[n+]1ccc(CCSc2ccc(F)cc2)cc1)c1ccccc1,inconclusive: 12.7%
21,Cc1ccc(N(C(=O)c2ccncc2)C2C=CS(=O)(=O)C2)cc1 (configuration not stated),inconclusive: 20%
